Values from PubChem BioAssay AID1259405 (NCATS, 2018)

- Aim: 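Mouse-designed siRNAs used to find CHO productivity engineering targets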 (primary screen)
- Cell system: Chinese hamster CHO-K1 ovary cells with stable secreted eGFP expression
- Reagents: single siRNA against mouse genes, 0.8 pmol siRNA per well (2 µl of 400 nM stock)
- Duration: 3 days
- Measured: 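Percent of the per-plate non-targeting control median for intracellular GFP per well by laser scanning cytometry and for cell viability by ATP luminescence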
- Reading the numbers: GFP, % of control: higher = more GFP per well, higher productivity
- Active means: 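a knock-down is called active if GFP reaches 120% or more of non-targeting control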
The whole screen tested about 50,000 reagents; shown is a random part of them. About 4,000 of them (8%) were called active. 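Mouse siRNA library applied to hamster cells; one well for each siRNA.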 Not all columns of the deposit are shown.

GFP, % of control, by target and reagent
Mrgpra4: SID363544079 68.8 inactive; SID363550407 76.3 inactive; SID363556956 77.1 inactive
Kcnd2: SID363574799 112 inactive; SID363575855 92.1 inactive; SID363580431 44.2 inactive
Ltb: SID363582482 0.181 inactive; SID363584242 88.5 inactive
Rasl2-9: SID363541650 105 inactive; SID363553242 91.3 inactive; SID363566566 64.9 inactive
Sirt3: SID363554058 49.6 inactive; SID363562015 60.4 inactive; SID363565753 95.9 inactive
Tnfrsf11a: SID363568618 113 inactive; SID363576010 56.6 inactive; SID363578826 83.7 inactive
Ndufa1: SID363572890 64.5 inactive; SID363577466 58.6 inactive; SID363580986 76 inactive
Fam98c: SID363540533 70.8 inactive; SID363542984 79.1 inactive; SID363552477 58 inactive
Fam222a: SID363562264 122 active; SID363567402 78.3 inactive; SID363584759 69.8 inactive
Tmem120a: SID363556215 183 active; SID363586665 86.5 inactive; SID363588773 104 inactive
Pnmt: SID363570708 123 active; SID363579508 95.7 inactive; SID363583380 72.2 inactive
Topbp1: SID363569149 195 active; SID363583581 62.6 inactive; SID363589641 69.5 inactive; SID363589642 83.1 inactive; SID363589643 90.2 inactive

6 entries from above, set out differently:
{"target":"Rasl2-9","PubChem SID":"SID363553242","GFP, % of control":91.3,"activity call":"inactive"}
{"target":"Rasl2-9","PubChem SID":"SID363566566","GFP, % of control":64.9,"activity call":"inactive"}
{"target":"Sirt3","PubChem SID":"SID363554058","GFP, % of control":49.6,"activity call":"inactive"}
{"target":"Sirt3","PubChem SID":"SID363562015","GFP, % of control":60.4,"activity call":"inactive"}
{"target":"Sirt3","PubChem SID":"SID363565753","GFP, % of control":95.9,"activity call":"inactive"}
{"target":"Tnfrsf11a","PubChem SID":"SID363568618","GFP, % of control":113,"activity call":"inactive"}
